Test in all cases: co-IP; total intestinal lysates of brackish water-acclimated Indian medaka or fresh water-acclimated Japanese medaka; immunoprecipitation with anti-FXYD12, pre-immune serum (negative control) or anti-NKA α (α5) using the ImmunoCruz IP/WB Optima System; immunoblot for NKA α (100 kDa) or FXYD12 (10 kDa)
Experiment [1] addresses T1, Indian medaka (Oryzias dancena) FXYD12 (Oryzias dancena (endogenous in intestine)) (UniProt R4N338).
T1 sequence: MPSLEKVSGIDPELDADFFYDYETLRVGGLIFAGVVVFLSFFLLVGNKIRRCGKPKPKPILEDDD

Experiment [2] has as its target T2, Japanese medaka (Oryzias latipes) FXYD12 (Oryzias latipes (endogenous in intestine)) (UniProt R4N6V2).
T2 sequence: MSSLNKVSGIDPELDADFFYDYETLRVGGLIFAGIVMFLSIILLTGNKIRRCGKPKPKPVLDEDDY

For experiment [3], the target named is Japanese medaka (Oryzias latipes) Na+/K+-ATPase α-subunit (Oryzias latipes (endogenous in intestine)).
In experiment [4] the target is Indian medaka (Oryzias dancena) Na+/K+-ATPase α-subunit (Oryzias dancena (endogenous in intestine)).

These are yes or no findings as the source states them, for the method shown. Binding seen in cells or lysates may run through a third protein. Binding calls can cover weak binding; strength is not graded here.

Regarding “Indian medaka (Oryzias dancena) Na+/K+-ATPase α-subunit”, the binding result in experiment [1] was “binds”.

On to “Japanese medaka (Oryzias latipes) Na+/K+-ATPase α-subunit”, for which the binding entry in experiment [2] is “binds”.

B1: Japanese medaka (Oryzias latipes) FXYD12 (protein, UniProt R4N6V2 1-66)
chain: MSSLNKVSGIDPELDADFFYDYETLRVGGLIFAGIVMFLSIILLTGNKIRRCGKPKPKPVLDEDDY
Turning to B1, the binding result in experiment [3] is given as “binds”.

B2: Indian medaka (Oryzias dancena) FXYD12 (protein, UniProt R4N338 1-65)
chain: MPSLEKVSGIDPELDADFFYDYETLRVGGLIFAGVVVFLSFFLLVGNKIRRCGKPKPKPILEDDD
On to B2, for which the binding entry in experiment [4] is given as “binds”.

These data come from PMC6063443.
